# This is one part of the list.
# Sequences of proteins named here, by UniProt entry; tags and fusion partners are left off. A change or cut given only in a name is not applied to a line headed by its entry.
# UniProt Q92576, whole entry, looked up: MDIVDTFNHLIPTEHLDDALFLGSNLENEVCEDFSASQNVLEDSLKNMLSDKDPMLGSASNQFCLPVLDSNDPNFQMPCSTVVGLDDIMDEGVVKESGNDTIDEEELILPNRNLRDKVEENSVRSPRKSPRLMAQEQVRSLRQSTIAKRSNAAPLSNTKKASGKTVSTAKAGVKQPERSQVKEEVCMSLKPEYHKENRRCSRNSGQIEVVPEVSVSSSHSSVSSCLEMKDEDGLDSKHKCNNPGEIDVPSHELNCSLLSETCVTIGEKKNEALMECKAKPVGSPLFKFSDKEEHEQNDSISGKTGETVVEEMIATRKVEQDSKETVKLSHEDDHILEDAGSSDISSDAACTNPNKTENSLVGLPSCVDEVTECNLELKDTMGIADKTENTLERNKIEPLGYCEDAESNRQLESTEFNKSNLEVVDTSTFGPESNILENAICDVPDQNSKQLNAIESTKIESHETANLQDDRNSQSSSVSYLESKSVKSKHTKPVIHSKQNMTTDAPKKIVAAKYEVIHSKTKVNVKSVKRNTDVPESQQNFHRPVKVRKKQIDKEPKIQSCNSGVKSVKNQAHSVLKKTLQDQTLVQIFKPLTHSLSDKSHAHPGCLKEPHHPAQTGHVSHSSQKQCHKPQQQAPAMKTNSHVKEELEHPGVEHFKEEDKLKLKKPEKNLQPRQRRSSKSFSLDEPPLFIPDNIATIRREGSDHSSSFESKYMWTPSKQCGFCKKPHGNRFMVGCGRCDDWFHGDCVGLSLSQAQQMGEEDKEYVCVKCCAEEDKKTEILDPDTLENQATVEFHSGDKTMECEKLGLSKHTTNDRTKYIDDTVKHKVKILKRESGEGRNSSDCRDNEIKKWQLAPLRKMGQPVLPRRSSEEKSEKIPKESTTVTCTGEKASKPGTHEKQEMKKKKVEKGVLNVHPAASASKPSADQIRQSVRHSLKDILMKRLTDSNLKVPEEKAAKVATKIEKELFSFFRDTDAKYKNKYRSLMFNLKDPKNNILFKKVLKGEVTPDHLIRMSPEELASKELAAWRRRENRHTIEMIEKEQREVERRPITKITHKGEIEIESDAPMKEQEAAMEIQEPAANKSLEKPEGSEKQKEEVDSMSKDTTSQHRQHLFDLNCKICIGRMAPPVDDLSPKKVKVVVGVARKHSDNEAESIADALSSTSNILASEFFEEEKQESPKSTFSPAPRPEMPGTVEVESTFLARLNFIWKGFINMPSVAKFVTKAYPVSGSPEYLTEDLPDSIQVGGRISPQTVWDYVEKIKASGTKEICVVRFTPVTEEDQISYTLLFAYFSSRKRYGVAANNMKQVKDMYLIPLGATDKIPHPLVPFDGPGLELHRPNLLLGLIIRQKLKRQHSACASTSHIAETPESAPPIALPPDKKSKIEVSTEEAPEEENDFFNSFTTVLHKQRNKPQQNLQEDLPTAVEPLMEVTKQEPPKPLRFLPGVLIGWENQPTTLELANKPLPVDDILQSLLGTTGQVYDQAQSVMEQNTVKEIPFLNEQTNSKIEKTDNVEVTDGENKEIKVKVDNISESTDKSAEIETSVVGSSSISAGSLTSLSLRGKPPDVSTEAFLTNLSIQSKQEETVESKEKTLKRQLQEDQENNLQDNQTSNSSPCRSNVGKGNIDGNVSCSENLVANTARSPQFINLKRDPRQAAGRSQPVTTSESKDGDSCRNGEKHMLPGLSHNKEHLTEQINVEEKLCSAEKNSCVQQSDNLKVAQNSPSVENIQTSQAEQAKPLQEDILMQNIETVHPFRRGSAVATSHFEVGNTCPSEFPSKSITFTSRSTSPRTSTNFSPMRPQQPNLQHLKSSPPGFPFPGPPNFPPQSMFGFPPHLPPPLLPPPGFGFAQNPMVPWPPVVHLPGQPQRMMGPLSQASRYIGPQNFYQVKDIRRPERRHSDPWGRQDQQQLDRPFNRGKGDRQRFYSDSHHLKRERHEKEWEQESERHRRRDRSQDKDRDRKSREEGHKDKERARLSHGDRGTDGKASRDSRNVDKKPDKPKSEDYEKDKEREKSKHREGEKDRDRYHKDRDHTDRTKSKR
# UniProt P48426: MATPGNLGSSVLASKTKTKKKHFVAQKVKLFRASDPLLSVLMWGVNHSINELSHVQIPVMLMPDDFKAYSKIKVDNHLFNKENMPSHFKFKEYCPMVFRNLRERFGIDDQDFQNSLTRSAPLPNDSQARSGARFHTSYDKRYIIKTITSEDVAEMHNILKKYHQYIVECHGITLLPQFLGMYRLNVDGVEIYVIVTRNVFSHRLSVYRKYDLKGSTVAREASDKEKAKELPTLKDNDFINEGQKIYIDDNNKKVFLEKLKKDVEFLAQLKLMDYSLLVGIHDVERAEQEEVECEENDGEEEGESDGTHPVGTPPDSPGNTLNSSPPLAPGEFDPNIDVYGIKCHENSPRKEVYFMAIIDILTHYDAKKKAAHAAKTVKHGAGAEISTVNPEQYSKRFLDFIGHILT
# UniProt Q14442: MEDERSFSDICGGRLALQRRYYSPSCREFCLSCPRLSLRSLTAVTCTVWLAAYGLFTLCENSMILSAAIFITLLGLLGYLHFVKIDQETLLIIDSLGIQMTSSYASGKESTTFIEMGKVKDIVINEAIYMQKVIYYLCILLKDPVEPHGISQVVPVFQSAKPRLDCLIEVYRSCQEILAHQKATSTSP
# UniProt O95394: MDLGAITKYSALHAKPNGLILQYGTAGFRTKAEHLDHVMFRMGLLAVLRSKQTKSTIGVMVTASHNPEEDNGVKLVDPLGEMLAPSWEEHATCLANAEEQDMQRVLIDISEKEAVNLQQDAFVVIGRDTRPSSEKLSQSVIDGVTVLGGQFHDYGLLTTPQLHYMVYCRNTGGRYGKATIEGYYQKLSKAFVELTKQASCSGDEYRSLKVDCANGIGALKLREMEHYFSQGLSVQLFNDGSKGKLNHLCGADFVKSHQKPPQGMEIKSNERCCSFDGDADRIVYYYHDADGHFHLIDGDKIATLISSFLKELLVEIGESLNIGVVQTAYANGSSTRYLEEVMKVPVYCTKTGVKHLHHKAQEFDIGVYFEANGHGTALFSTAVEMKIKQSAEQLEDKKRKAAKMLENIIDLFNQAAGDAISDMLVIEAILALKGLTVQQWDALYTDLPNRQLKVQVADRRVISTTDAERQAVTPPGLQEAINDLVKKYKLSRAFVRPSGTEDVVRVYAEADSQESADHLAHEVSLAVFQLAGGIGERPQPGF
# UniProt Q7RTV0, whole entry, looked up: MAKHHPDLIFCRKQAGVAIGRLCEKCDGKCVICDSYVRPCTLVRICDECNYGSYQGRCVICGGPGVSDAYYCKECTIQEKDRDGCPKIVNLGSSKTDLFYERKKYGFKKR
# UniProt Q9BTU6: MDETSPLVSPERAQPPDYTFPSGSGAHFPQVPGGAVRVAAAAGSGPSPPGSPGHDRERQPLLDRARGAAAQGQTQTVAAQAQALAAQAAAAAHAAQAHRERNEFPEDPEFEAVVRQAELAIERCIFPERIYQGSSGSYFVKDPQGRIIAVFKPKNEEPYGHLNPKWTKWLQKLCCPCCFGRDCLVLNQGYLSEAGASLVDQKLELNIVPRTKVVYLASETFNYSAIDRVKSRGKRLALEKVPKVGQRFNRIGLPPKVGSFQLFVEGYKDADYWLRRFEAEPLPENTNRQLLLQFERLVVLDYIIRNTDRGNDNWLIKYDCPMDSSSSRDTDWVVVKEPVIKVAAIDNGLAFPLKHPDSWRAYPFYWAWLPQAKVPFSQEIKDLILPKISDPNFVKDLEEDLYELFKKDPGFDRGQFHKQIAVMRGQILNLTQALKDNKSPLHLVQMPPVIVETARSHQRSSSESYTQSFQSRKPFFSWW
# UniProt P07205: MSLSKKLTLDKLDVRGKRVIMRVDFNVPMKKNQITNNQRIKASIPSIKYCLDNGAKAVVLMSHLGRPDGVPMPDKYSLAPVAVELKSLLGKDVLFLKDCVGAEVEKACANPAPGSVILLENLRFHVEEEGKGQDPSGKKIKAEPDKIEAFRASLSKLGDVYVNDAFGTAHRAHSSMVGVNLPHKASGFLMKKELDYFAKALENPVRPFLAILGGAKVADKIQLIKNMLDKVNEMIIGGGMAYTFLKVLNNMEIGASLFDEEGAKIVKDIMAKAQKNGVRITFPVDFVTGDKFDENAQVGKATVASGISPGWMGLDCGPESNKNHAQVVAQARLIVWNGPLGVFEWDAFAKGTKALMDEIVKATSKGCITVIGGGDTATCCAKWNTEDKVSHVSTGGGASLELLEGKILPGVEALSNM
# UniProt Q99623, whole entry, looked up: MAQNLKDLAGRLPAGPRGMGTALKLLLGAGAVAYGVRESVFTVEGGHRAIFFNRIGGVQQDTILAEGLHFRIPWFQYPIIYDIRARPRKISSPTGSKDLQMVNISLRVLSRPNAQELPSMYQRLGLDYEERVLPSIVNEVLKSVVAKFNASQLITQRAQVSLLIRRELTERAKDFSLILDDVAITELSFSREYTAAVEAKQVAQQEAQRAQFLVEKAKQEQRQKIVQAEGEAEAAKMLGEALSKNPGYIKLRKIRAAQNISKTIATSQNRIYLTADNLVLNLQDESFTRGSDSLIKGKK
# UniProt Q9UG56: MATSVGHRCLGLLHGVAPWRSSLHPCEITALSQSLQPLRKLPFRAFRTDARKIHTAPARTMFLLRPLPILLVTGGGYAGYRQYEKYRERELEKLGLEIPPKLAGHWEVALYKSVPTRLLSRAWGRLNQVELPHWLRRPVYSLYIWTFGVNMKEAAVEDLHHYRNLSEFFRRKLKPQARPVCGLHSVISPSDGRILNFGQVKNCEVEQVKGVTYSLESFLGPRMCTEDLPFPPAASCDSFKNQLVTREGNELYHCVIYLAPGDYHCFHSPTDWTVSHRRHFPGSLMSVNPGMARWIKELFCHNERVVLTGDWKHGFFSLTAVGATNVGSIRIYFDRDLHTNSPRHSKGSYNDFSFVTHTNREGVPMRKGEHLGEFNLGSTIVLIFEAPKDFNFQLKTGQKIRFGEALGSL
# UniProt Q8IV08: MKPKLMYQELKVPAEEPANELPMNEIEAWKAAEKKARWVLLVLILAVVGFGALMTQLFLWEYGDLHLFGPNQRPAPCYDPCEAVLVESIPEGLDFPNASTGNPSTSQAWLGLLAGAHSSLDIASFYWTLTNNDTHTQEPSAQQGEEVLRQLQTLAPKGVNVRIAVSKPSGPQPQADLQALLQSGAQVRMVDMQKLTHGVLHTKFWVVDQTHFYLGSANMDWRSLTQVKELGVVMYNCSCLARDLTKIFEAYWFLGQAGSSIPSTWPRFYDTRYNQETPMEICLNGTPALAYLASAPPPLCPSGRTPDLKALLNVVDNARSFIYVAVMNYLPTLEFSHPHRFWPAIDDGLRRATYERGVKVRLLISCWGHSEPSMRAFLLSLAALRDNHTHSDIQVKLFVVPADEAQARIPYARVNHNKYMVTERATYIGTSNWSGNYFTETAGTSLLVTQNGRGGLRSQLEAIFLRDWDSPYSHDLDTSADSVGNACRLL
# UniProt Q13608: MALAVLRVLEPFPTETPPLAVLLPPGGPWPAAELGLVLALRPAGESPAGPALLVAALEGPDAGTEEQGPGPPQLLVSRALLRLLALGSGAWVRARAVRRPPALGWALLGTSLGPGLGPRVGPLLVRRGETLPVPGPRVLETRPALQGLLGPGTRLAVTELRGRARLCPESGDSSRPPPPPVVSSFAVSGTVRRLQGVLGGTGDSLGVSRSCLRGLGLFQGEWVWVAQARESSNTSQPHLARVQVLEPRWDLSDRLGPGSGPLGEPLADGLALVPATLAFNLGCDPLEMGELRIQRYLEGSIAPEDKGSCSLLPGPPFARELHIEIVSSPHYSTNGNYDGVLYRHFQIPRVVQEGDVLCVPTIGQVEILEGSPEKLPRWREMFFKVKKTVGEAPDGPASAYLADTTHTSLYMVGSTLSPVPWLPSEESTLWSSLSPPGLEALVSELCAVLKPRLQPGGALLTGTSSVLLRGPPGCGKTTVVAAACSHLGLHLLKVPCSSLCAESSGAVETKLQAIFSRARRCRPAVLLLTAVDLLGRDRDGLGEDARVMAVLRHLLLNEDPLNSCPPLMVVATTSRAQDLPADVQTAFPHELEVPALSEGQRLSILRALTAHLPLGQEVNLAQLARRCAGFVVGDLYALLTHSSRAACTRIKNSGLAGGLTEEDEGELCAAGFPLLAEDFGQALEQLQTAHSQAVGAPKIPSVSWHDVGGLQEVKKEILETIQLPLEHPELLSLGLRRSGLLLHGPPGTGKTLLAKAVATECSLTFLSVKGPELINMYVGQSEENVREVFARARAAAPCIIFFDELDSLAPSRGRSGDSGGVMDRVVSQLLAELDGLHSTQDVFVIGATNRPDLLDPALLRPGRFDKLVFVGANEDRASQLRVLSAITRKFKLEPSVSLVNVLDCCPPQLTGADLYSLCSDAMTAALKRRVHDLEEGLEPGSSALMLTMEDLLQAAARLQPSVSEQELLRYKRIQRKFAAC
# UniProt P12273: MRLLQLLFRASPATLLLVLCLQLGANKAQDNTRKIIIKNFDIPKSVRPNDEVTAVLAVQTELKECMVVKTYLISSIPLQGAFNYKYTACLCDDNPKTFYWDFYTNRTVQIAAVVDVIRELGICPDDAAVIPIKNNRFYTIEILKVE
# Legend:
# Assay in all cases: log2 fold change, soluble protein after heating vs DMSO (PISA); higher = thermal stabilisation; K562 cells, 10 uM, 30 min; active = over 0.2 and 3.5 SD of the protein, either way, in both replicates (recomputed)
# [1] = compound: C1=CC=C(C=C1)[C@H](COC2=CC3=C(C=C2)NC(=O)N3)NC(=O)C4=CC=CN(C4=O)CC5=CC(=C(C=C5)F)F
# Method in brief: (§1)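 K562 cells at 2×10^6 cells/mL were treated with 10 μM compound for 30 min. Aliquots were heated for 3 min across 48°C-58°C, pooled, and extracted in PBS with 0.5% NP-40 at 4°C; soluble protein was the supernatant after 21,000xg for 90 min. Soluble protein was quantified by TMTpro 16plex LC-MS/MS with channel sums equalised, and reported as log2 fold change in thermal stability against DMSO controls, with values from duplicates.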
# [2] = compound: CC1=C(SC2=C1C(=N[C@H](C3=NN=C(N32)C)CC(=O)N)C4=CC=C(C=C4)Cl)C
# Method in brief: as §1
# [3] = compound: CC1=C2C(=CC=C1)N=C(N(C2=O)C3=CC=CC=C3C)CN4C=NC5=C(N=CN=C54)N
# Method in brief: as §1
# [4] = compound: Cc1sc2c(c1C)C(c1ccc(Cl)cc1)=N[C@@H](CC(=O)OC(C)(C)C)c1nnc(C)n1-2
# Method in brief: as §1
# [5] = compound: c1ccc([C@@H]2C[C@H]2NC2CCNCC2)cc1
# Method in brief: as §1
Target,log2 fold change [1],log2 fold change [2],log2 fold change [3],log2 fold change [4],log2 fold change [5]
PHF3 (UniProt Q92576),inactive: 0.073,inactive: -0.055,inactive: -0.167,inactive: 0.176,inactive: 0.041
PITHD1 (UniProt Q9GZP4),inactive: 0.062,inactive: -0.013,inactive: 0.057,inactive: 0.036,inactive: 0.07
PIP4K2A (UniProt P48426),inactive: -0.091,inactive: 0.032,inactive: 0.049,inactive: 0.033,inactive: -0.024
PIGH (UniProt Q14442),inactive: 0.044,inactive: 0.064,inactive: 0.144,inactive: -0.046,inactive: -0.024
PIK3R4 (UniProt Q99570),inactive: -0.018,inactive: 0.006,inactive: 0.056,inactive: -0.016,inactive: -0.02
PGM3 isoform 4 (UniProt O95394),inactive: -0.082,inactive: 0.039,inactive: 0.066,inactive: 0.012,inactive: -0.088
PHF5A (UniProt Q7RTV0),inactive: 0.048,inactive: -0.024,inactive: 0.018,inactive: 0.002,inactive: 0.018
PI4K2A (UniProt Q9BTU6),inactive: 0.015,inactive: 0.043,inactive: 0.064,inactive: -0.004,inactive: 0.013
PI4K2B (UniProt Q8TCG2),inactive: 0.007,inactive: 0.031,inactive: 0.065,inactive: 0.024,inactive: -0.041
PIGT (UniProt Q969N2),inactive: 0.022,inactive: 0.142,inactive: -0.013,active: 0.276,inactive: -0.021
PGK2 (UniProt P07205),inactive: -0.1,inactive: 0.046,inactive: 0.153,inactive: 0.037,inactive: 0.034
PHB2 (UniProt Q99623),inactive: 0.024,inactive: 0.008,inactive: 0,inactive: -0.001,inactive: 0.016
PISD (UniProt Q9UG56),inactive: 0.002,inactive: -0.024,inactive: 0.079,inactive: -0.011,inactive: 0.043
PI4KA (UniProt P42356),inactive: -0.01,inactive: -0.079,inactive: 0.032,inactive: 0.043,inactive: -0.029
PGM2 (UniProt Q96G03),inactive: 0.003,inactive: 0.002,inactive: 0.005,inactive: -0.014,inactive: 0.019
PEX7 (UniProt O00628),active: -0.371,inactive: 0.035,inactive: 0.136,inactive: 0.021,inactive: -0.03
PLD3 (UniProt Q8IV08),inactive: 0.022,inactive: 0.058,inactive: 0.033,inactive: 0.017,inactive: 0.009
PFKFB4 (UniProt Q16877),inactive: -0.031,inactive: 0.056,inactive: 0.063,inactive: -0.035,inactive: -0.02
PIGQ (UniProt Q9BRB3),inactive: -0.057,inactive: -0.011,inactive: 0.262,inactive: -0.161,inactive: -0.014
PFDN5 (UniProt Q99471),inactive: -0.042,inactive: 0.089,inactive: -0.043,inactive: -0.093,inactive: -0.048
PEX6 (UniProt Q13608),inactive: -0.02,inactive: 0.035,inactive: 0.033,inactive: -0.092,inactive: 0.006
PIKFYVE (UniProt Q9Y2I7),inactive: -0.077,inactive: 0.106,inactive: 0.111,inactive: 0.068,inactive: -0.009
PIP4P2 (UniProt Q8N4L2),inactive: 0.045,inactive: 0.048,inactive: -0.066,inactive: -0.017,inactive: -0.018
PICALM (UniProt H0YEY8),inactive: 0.091,inactive: 0.09,inactive: 0.15,inactive: 0.041,inactive: 0.055
PIP (UniProt P12273),inactive: -0.44,inactive: 0.15,inactive: -0.394,inactive: -0.5,inactive: -0.063

# Full records from above.
# PIGT (UniProt Q969N2) is listed as log2 fold change [1]: inactive: 0.022; log2 fold change [2]: inactive: 0.142; log2 fold change [3]: inactive: -0.013; log2 fold change [4]: active: 0.276; log2 fold change [5]: inactive: -0.021
# PISD (UniProt Q9UG56) is listed as log2 fold change [1]: inactive: 0.002; log2 fold change [2]: inactive: -0.024; log2 fold change [3]: inactive: 0.079; log2 fold change [4]: inactive: -0.011; log2 fold change [5]: inactive: 0.043
